## Screening data

Data taken from PubChem BioAssay AID1053133, deposited by Broad Institute (2014).

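Vaccinia-infected cells with a two-color viral stage reporter; Venus fluorescence read on a plate reader; the cell line is not named here; timing not stated here.
The test concentration is not given here.
Percent change in Venus reporter signal; lower (more negative) values mean stronger inhibition of that viral stage.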

Values are in %.
How 0% and 100% were set is not given here.
Common to all entries: measured here: Venus reporter, other viral stage.
Part of the compounds only, not a random draw; the main read-out is not listed here.

{"compound": "C[C@H]1CCCCO[C@H](CN(C)CC2CCCCC2)[C@@H](C)CN([C@@H](C)CO)C(=O)c2cc(NC(=O)Nc3ccc(F)cc3)ccc2O1", "activity change (Venus) (%)": "-82.94"}
{"compound": "CCC(=O)N1CC(=O)N2[C@H](C1)[C@H](c1ccc(C#CCC(C)C)cc1)[C@@H]2CO", "activity change (Venus) (%)": "-26.47"}
{"compound": "COc1ccc2c3c([nH]c2c1)[C@H](CO)N(C(C)=O)CC31CN(Cc2ccccc2Cl)C1", "activity change (Venus) (%)": "-43.5"}
{"compound": "C[C@@H]1CN([C@@H](C)CO)C(=O)c2cc(NC(=O)Nc3ccc4c(c3)OCO4)ccc2O[C@H]1CN(C)Cc1ccc(-c2ccccc2)cc1", "activity change (Venus) (%)": "-31.44"}
{"compound": "CC(C)CC#Cc1ccc2c(c1)O[C@@H](CN(C)C(=O)CC1CC1)[C@@H](C)CN([C@@H](C)CO)S2(=O)=O", "activity change (Venus) (%)": "-29.45"}
{"compound": "C[C@@H]1CN([C@@H](C)CO)S(=O)(=O)c2ccc(C#CC3CC3)cc2O[C@H]1CN(C)Cc1ccccc1", "activity change (Venus) (%)": "-48.97"}
{"compound": "O=C(C[C@@H]1CC[C@H](NC(=O)Nc2ccccc2F)[C@H](CO)O1)NCc1ccc(-c2ccccc2)cc1", "activity change (Venus) (%)": "-32.63"}
{"compound": "Cc1noc(C)c1NC(=O)Nc1ccc2c(c1)C(=O)N([C@H](C)CO)C[C@@H](C)[C@H](CN(C)Cc1ccc(C(F)(F)F)cc1)OCCCC[C@@H](C)O2", "activity change (Venus) (%)": "-25.07"}
{"compound": "O=C(Nc1ccc(F)cc1)N1CCCCN2[C@H](C1)[C@@H](c1ccc(C#Cc3ccccc3)cc1)[C@@H]2CO", "activity change (Venus) (%)": "-53"}
{"compound": "COc1ccc(CN(C)C[C@@H]2OCCCC[C@@H](C)Oc3ccc(NS(=O)(=O)c4ccc(Cl)cc4)cc3C(=O)N([C@H](C)CO)C[C@H]2C)cc1", "activity change (Venus) (%)": "-70.67"}
{"compound": "COc1ccc([Si](C)(C)[C@H]2[C@H](CCO)O[C@@]3(C(=O)N(Cc4ccccc4)c4ccc(NC(C)=O)cc43)[C@@H]2C)cc1", "activity change (Venus) (%)": "-43.59"}
{"compound": "O=C(CC1CC1)N1CC(=O)N2[C@H](C1)[C@H](c1ccc(C#Cc3ccc(F)cc3)cc1)[C@@H]2CO", "activity change (Venus) (%)": "-66.07"}
{"compound": "COc1ccc(C#Cc2ccc([C@@H]3[C@H]4CN(C(=O)Nc5ccc(F)cc5)CCCCN4[C@H]3CO)cc2)cc1", "activity change (Venus) (%)": "-53.67"}
{"compound": "COc1ccc(CN(C)C[C@@H]2Oc3ccc(NC(=O)Nc4ccc(C(F)(F)F)cc4)cc3C(=O)N([C@@H](C)CO)C[C@H]2C)cc1", "activity change (Venus) (%)": "-44.36"}
{"compound": "COC(=O)[C@]1(Cc2ccccc2CN=[N+]=[N-])N=C(c2ccc(OCCCO)cc2)O[C@@H]1c1ccccc1", "activity change (Venus) (%)": "-27.86"}
{"compound": "C[C@@H]1CN([C@H](C)CO)C(=O)Cc2cc(NC(=O)Cc3cn(C)c4ccccc34)ccc2O[C@H]1CN(C)CC1CCCCC1", "activity change (Venus) (%)": "-34.6"}
{"compound": "CNC[C@H]1Oc2cc(C#Cc3ccccc3OC)ccc2S(=O)(=O)N([C@H](C)CO)C[C@@H]1C", "activity change (Venus) (%)": "-30.01"}
{"compound": "C[C@@H]1CN([C@@H](C)CO)C(=O)c2cc(NC(=O)NC3CCCCC3)ccc2O[C@@H]1CN(C)Cc1ccc(Cl)c(Cl)c1", "activity change (Venus) (%)": "-28.46"}
{"compound": "Cc1ccc(-c2ccc(C3[C@@H]4CN(Cc5cccc(F)c5)C[C@H]3N4)cc2)cc1", "stereo": "stereo not given in full", "activity change (Venus) (%)": "-26.56"}
{"compound": "Cc1ccc(S(=O)(=O)Nc2ccc3c(c2)C(=O)N([C@H](C)CO)C[C@@H](C)[C@@H](CN(C)C(=O)Cc2ccccc2)OCCCC[C@@H](C)O3)cc1", "activity change (Venus) (%)": "-35.71"}
{"compound": "O=C(c1ccccc1)N1CC(=O)N2[C@@H](CO)[C@@H](c3ccc(C#Cc4ccccc4)cc3)[C@@H]2C1", "activity change (Venus) (%)": "-81.22"}
{"compound": "CC(C)CC#Cc1ccc([C@@H]2[C@H](CO)N3CCCCN(S(=O)(=O)Cc4ccccc4)C[C@@H]23)cc1", "activity change (Venus) (%)": "-38.59"}
{"compound": "C[C@H](CO)N1C[C@H](C)[C@H](CN(C)C(=O)Nc2cccc(F)c2)Oc2ncc(C3=CCCCC3)cc2C1=O", "activity change (Venus) (%)": "-53.08"}
{"compound": "C[C@H]1CN([C@@H](C)CO)C(=O)c2cc(-c3ccc(C#N)cc3)cnc2O[C@@H]1CN(C)C(=O)c1cccnc1", "activity change (Venus) (%)": "-25.06"}
{"compound": "CCCNC(=O)N1C[C@@H]2N[C@H](C1)C2c1ccc(-c2ccc(F)cc2)cc1", "stereo": "stereo not given in full", "activity change (Venus) (%)": "-93.18"}
{"compound": "O=C(Nc1cccc(F)c1)N1C[C@@H]2N[C@H](C1)C2c1ccc(-c2ccc(F)cc2)cc1", "stereo": "stereo not given in full", "activity change (Venus) (%)": "-44.69"}
{"compound": "COc1ccc(CN(C)C[C@H]2Oc3ccc(NS(=O)(=O)c4ccc(Cl)cc4)cc3CC(=O)N([C@@H](C)CO)C[C@@H]2C)cc1", "activity change (Venus) (%)": "-79.66"}
{"compound": "C[C@H]1CN([C@@H](C)CO)C(=O)Cc2cc(N(C)C)ccc2O[C@H]1CN(C)C(=O)Nc1ccccc1", "activity change (Venus) (%)": "-46.55"}
{"compound": "C[C@H](CO)N1C[C@H](C)[C@H](CN(C)Cc2ccc(Oc3ccccc3)cc2)Oc2ncc(-c3cccnc3)cc2C1=O", "activity change (Venus) (%)": "-41.01"}
{"compound": "C/C=C/c1ccc([C@H]2[C@@H](CO)N3CCCCN(C(=O)Nc4ccc(F)cc4)C[C@H]23)cc1", "activity change (Venus) (%)": "-59.57"}
{"compound": "CN(C)C(=O)c1cccc(-c2ccc(C3[C@H]4CNC[C@@H]3N4Cc3cccc(C(F)(F)F)c3)cc2)c1", "stereo": "stereo not given in full", "activity change (Venus) (%)": "-27.15"}
{"compound": "CC(C)NC(=O)N1CCCCN2[C@H](CO)[C@@H](c3ccc(C#Cc4ccccc4F)cc3)[C@H]2C1", "activity change (Venus) (%)": "-54.39"}

The first 4 entries again:

compound,activity change (Venus) (%)
C[C@H]1CCCCO[C@H](CN(C)CC2CCCCC2)[C@@H](C)CN([C@@H](C)CO)C(=O)c2cc(NC(=O)Nc3ccc(F)cc3)ccc2O1,-82.94
CCC(=O)N1CC(=O)N2[C@H](C1)[C@H](c1ccc(C#CCC(C)C)cc1)[C@@H]2CO,-26.47
COc1ccc2c3c([nH]c2c1)[C@H](CO)N(C(C)=O)CC31CN(Cc2ccccc2Cl)C1,-43.5
C[C@@H]1CN([C@@H](C)CO)C(=O)c2cc(NC(=O)Nc3ccc4c(c3)OCO4)ccc2O[C@H]1CN(C)Cc1ccc(-c2ccccc2)cc1,-31.44